This test concerns the target C3bBb, the alternative pathway C3 convertase (human) (UniProt P01024). Nature of the test: SEC; C3b, FB and albicin incubated with FD for 14 h; Superdex 200 in buffer A; SDS-PAGE of fractions; both purified. A general note: Size exclusion chromatography separates by hydrodynamic size, large species first.

Protein sequences, listed by entry. Tags and fused reporters are not part of them. Lines headed by an entry give the natural chain unless they say otherwise; changes in a name come on top.
UniProt P01024: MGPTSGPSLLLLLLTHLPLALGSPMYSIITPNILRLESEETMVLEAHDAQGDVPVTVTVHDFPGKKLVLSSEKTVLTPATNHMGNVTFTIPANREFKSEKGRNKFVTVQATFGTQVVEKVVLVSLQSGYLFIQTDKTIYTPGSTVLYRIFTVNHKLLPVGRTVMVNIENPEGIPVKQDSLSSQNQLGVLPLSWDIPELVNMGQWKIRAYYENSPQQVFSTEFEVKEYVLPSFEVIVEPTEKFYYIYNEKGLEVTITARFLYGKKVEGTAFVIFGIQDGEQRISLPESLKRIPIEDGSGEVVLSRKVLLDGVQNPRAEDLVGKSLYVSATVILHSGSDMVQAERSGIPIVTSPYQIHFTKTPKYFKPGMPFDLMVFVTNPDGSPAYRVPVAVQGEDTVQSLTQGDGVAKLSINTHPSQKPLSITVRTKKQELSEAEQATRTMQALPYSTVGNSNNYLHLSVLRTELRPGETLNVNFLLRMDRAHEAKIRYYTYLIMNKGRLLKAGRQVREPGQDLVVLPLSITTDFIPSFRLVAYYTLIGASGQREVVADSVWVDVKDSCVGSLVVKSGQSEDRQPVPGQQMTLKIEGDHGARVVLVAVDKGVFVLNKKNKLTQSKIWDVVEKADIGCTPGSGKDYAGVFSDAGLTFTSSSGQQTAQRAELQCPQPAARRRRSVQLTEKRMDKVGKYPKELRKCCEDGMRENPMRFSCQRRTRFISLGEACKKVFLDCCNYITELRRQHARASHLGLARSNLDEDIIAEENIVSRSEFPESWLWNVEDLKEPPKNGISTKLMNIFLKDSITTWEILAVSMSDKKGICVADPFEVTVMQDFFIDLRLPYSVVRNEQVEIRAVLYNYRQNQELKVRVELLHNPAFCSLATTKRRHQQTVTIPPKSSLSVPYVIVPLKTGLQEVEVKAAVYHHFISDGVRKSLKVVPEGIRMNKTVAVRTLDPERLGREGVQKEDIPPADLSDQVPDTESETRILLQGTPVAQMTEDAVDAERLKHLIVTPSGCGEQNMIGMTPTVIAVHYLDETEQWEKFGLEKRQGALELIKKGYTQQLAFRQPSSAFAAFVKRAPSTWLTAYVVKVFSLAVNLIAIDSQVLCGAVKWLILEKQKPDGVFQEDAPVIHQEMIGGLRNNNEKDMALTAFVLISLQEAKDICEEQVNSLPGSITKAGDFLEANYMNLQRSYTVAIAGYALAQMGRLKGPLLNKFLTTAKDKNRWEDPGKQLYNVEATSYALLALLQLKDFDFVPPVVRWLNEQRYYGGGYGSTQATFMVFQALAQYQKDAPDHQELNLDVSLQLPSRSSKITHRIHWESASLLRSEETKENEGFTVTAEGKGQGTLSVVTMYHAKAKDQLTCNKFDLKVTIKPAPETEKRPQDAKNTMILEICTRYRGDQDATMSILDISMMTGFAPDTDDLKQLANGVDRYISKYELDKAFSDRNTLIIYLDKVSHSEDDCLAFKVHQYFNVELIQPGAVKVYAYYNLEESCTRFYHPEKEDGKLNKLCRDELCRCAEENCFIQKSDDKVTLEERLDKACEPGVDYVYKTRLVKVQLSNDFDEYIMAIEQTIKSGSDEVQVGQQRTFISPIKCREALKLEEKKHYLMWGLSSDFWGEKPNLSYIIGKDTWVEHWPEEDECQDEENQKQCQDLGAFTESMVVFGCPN

Results are given in words; binding and its absence hold for the method and conditions named.

B1: albicin (natural protein)
chain: ANNHIRTVLKLFRTIDLDDSKKSFYLTAAKYGIQTQLREPIIRIVGGYLPSTKLSEACVKNMISEVYEIEGDFYSKFSYACEDHAPYSVECLEDARDDYLTQLVELFKETKKCLRE
notes: albicin, salivary Sg7-1 family protein of the mosquito Anopheles albimanus; crystal structure PDB 6XKE; Four-helix bundle with two disulfide bonds; Probably made without its signal peptide (surmised); also called Sg7-1 protein of An. albimanus
With B1, the binding entry was “no binding (condition: after 14 h of incubation)”.
